Measurements taken from EP3173487A1 (priority 2015, dated 2017).

Tested on: haloalkane dehalogenase LinB
Assay type: biochemical, Sphingobium japonicum UT26

**Q.** Which results are given for `ClCCOCCCl` [bis(2-chloroethyl) ether]?
**A.** detected visually down to: 2.0 mg/L; saturation of the signal at concentrations of analyte: above 2 mg/L
